From paper PMC11231609

The chains behind the UniProt entries cited, without tags or fusion partners. Residues count along the entry.
UniProt Q16602, residues 23-461: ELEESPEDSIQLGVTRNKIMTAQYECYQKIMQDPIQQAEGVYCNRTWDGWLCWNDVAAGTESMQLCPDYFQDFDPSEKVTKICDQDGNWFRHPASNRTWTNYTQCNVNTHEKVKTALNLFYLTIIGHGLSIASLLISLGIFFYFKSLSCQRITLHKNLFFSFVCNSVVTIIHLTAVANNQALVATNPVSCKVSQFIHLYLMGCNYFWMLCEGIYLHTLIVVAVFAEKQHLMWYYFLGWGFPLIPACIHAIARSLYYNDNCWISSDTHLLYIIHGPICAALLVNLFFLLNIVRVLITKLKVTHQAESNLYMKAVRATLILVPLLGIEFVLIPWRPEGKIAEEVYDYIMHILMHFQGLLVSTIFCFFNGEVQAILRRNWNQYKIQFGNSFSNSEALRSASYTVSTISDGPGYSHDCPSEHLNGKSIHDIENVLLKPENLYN
UniProt O95816: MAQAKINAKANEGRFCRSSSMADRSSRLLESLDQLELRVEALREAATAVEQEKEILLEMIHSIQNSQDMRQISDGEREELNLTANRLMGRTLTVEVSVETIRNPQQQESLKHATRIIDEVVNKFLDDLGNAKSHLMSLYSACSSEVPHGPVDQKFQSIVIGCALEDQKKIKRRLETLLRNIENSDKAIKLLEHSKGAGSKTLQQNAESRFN
UniProt Q13557: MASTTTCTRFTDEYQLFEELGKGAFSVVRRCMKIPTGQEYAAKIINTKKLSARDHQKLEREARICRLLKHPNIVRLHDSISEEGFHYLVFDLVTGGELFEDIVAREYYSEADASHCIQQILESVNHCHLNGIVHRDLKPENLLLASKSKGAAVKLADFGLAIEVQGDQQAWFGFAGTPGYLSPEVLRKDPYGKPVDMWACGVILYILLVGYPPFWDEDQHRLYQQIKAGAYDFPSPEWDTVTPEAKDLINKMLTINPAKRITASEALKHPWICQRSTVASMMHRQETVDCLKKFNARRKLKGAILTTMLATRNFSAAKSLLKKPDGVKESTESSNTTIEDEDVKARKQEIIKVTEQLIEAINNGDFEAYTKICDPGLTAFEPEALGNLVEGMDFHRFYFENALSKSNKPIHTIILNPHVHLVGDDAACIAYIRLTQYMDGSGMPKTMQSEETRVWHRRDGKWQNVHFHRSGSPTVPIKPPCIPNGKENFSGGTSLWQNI
UniProt Q13555: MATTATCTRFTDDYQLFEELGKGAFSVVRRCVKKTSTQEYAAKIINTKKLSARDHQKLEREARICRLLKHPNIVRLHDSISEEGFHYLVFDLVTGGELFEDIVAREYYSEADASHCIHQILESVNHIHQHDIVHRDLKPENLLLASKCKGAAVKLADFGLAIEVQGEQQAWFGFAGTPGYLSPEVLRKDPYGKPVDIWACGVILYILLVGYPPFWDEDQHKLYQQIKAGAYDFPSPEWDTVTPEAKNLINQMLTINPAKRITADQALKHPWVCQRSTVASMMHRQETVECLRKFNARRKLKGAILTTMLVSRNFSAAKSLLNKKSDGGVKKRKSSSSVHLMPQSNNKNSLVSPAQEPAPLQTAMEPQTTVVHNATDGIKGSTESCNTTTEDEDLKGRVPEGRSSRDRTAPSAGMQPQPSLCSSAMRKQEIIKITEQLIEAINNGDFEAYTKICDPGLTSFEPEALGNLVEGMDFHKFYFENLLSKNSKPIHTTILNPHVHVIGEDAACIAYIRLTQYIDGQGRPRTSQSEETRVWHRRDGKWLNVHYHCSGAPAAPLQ
UniProt Q5VT25: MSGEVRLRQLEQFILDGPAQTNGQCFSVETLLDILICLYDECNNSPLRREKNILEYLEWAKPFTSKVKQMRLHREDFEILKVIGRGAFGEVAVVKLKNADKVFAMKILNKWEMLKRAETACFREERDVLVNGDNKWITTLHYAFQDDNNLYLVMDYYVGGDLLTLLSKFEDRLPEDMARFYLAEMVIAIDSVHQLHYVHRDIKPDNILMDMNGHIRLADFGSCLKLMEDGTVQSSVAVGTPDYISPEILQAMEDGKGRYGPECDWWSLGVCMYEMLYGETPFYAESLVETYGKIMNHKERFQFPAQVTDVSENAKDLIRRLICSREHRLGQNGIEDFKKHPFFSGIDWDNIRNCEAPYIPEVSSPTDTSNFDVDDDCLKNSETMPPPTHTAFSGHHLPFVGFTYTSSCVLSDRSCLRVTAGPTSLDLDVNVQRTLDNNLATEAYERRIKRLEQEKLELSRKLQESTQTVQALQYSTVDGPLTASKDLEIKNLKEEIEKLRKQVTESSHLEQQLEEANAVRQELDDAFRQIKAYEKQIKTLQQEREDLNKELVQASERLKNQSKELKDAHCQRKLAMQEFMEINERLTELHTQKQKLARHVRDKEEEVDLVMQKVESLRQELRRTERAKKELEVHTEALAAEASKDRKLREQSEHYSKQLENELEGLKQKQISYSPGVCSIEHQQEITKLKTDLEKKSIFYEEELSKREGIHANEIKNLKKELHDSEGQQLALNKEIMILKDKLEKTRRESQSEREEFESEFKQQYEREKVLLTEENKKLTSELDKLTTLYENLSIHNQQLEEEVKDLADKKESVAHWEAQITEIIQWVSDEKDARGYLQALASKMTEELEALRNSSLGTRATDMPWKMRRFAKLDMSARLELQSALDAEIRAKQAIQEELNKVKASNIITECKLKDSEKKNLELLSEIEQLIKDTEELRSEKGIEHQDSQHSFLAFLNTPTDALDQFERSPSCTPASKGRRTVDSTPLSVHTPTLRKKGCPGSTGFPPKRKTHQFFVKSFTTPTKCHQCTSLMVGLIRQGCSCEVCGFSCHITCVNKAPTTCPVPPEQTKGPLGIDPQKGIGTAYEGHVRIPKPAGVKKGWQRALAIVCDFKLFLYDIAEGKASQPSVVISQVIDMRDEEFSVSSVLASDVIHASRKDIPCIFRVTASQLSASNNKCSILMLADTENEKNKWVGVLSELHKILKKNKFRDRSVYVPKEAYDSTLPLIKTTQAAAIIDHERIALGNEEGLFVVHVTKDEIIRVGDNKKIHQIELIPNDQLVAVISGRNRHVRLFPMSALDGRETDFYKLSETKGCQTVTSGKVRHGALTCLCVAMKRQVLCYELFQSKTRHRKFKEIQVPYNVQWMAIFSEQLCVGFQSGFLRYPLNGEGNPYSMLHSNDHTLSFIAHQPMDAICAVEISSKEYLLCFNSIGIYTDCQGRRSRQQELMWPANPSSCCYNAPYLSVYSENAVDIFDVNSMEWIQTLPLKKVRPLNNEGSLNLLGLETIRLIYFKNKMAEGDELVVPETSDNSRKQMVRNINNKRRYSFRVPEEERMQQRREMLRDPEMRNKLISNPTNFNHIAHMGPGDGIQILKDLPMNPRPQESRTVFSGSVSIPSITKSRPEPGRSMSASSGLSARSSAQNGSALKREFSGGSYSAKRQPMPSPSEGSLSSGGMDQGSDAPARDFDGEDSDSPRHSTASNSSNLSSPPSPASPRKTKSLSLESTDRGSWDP
UniProt Q9Y5S2: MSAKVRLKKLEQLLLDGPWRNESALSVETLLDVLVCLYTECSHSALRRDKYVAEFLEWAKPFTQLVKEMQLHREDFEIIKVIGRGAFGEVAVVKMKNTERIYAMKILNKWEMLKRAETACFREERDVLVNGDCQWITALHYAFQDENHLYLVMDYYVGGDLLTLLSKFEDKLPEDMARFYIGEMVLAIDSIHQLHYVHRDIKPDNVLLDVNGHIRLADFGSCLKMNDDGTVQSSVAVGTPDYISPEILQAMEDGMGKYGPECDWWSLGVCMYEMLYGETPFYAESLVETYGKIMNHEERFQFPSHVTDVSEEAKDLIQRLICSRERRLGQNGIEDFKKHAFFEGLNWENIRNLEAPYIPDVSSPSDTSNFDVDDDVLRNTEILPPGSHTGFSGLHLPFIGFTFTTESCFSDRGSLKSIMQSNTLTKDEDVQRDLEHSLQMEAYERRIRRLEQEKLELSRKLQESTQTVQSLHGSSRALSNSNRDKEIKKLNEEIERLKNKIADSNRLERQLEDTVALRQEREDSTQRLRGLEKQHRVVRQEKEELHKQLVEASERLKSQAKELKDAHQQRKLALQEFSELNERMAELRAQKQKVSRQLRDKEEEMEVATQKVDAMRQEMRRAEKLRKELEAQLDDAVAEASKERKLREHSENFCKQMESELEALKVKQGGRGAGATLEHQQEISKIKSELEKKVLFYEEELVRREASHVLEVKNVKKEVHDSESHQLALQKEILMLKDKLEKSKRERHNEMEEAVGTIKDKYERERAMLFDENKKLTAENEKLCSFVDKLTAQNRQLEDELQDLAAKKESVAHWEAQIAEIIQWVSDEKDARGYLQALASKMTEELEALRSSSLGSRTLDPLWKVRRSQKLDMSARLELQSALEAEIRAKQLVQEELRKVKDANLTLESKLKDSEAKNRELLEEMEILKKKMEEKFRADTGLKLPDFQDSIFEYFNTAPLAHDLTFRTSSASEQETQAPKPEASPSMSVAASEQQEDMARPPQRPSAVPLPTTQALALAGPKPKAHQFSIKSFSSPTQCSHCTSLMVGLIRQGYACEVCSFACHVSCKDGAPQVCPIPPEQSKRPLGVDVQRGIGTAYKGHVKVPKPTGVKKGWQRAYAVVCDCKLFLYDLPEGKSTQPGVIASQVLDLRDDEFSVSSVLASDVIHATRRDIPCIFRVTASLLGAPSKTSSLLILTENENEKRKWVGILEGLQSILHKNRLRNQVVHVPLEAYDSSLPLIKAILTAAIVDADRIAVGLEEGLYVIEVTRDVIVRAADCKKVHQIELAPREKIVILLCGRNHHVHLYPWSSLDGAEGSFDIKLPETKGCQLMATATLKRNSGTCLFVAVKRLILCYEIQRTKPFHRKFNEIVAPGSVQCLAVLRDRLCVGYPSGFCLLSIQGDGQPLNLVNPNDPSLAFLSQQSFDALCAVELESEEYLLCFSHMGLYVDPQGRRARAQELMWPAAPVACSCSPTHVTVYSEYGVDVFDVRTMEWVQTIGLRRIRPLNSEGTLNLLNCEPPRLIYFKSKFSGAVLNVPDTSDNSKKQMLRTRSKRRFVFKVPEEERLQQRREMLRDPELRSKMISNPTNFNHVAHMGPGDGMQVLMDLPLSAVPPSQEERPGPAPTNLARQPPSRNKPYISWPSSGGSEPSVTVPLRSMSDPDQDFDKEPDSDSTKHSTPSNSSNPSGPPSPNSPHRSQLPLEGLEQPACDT

B1: elongation of very long-chain fatty acids protein 1 (protein, UniProt Q9BW60 1-279)
chain: MEAVVNLYQEVMKHADPRIQGYPLMGSPLLMTSILLTYVYFVLSLGPRIMANRKPFQLRGFMIVYNFSLVALSLYIVYEFLMSGWLSTYTWRCDPVDYSNSPEALRMVRVAWLFLFSKFIELMDTVIFILRKKDGQVTFLHVFHHSVLPWSWWWGVKIAPGGMGSFHAMINSSVHVIMYLYYGLSAFGPVAQPYLWWKKHMTAIQLIQFVLVSLHISQYYFMSSCNYQYPVIIHLIWMYGTIFFMLFSNFWYHSYTKGKRLPRALQQNGAPGIAKVKAN
B2: ADAMTS like 2 (protein, UniProt Q86TH1 23-951)
chain: DTVSTGSTDNSPTSNSLEGGTDATAFWWGEWTKWTACSRSCGGGVTSQERHCLQQRRKSVPGPGNRTCTGTSKRYQLCRVQECPPDGRSFREEQCVSFNSHVYNGRTHQWKPLYPDDYVHISSKPCDLHCTTVDGQRQLMVPARDGTSCKLTDLRGVCVSGKCEPIGCDGVLFSTHTLDKCGICQGDGSSCTHVTGNYRKGNAHLGYSLVTHIPAGARDIQIVERKKSADVLALADEAGYYFFNGNYKVDSPKNFNIAGTVVKYRRPMDVYETGIEYIVAQGPTNQGLNVMVWNQNGKSPSITFEYTLLQPPHESRPQPIYYGFSESAESQGLDGAGLMGFVPHNGSLYGQASSERLGLDNRLFGHPGLDMELGPSQGQETNEVCEQAGGGACEGPPRGKGFRDRNVTGTPLTGDKDDEEVDTHFASQEFFSANAISDQLLGAGSDLKDFTLNETVNSIFAQGAPRSSLAESFFVDYEENEGAGPYLLNGSYLELSSDRVANSSSEAPFPNVSTSLLTSAGNRTHKARTRPKARKQGVSPADMYRWKLSSHEPCSATCTTGVMSAYAMCVRYDGVEVDDSYCDALTRPEPVHEFCAGRECQPRWETSSWSECSRTCGEGYQFRVVRCWKMLSPGFDSSVYSDLCEAAEAVRPEERKTCRNPACGPQWEMSEWSECTAKCGERSVVTRDIRCSEDEKLCDPNTRPVGEKNCTGPPCDRQWTVSDWGPCSGSCGQGRTIRHVYCKTSDGRVVPESQCQMETKPLAIHPCGDKNCPAHWLAQDWERCNTTCGRGVKKRLVLCMELANGKPQTRSGPECGLAKKPPEESTCFERPCFKWYTSPWSECTKTCGVGVRMRDVKCYQGTDIVRGCDPLVKPVGRQACDLQPCPTEPPDDSCQDQPGTNCALAIKVNLCGHWYYSKACCRSCRPPHS
B3: iron regulatory protein 1 (protein, UniProt P21399 1-889)
chain: MSNPFAHLAEPLDPVQPGKKFFNLNKLEDSRYGRLPFSIRVLLEAAIRNCDEFLVKKQDIENILHWNVTQHKNIEVPFKPARVILQDFTGVPAVVDFAAMRDAVKKLGGDPEKINPVCPADLVIDHSIQVDFNRRADSLQKNQDLEFERNRERFEFLKWGSQAFHNMRIIPPGSGIIHQVNLEYLARVVFDQDGYYYPDSLVGTDSHTTMIDGLGILGWGVGGIEAEAVMLGQPISMVLPQVIGYRLMGKPHPLVTSTDIVLTITKHLRQVGVVGKFVEFFGPGVAQLSIADRATIANMCPEYGATAAFFPVDEVSITYLVQTGRDEEKLKYIKKYLQAVGMFRDFNDPSQDPDFTQVVELDLKTVVPCCSGPKRPQDKVAVSDMKKDFESCLGAKQGFKGFQVAPEHHNDHKTFIYDNTEFTLAHGSVVIAAITSCTNTSNPSVMLGAGLLAKKAVDAGLNVMPYIKTSLSPGSGVVTYYLQESGVMPYLSQLGFDVVGYGCMTCIGNSGPLPEPVVEAITQGDLVAVGVLSGNRNFEGRVHPNTRANYLASPPLVIAYAIAGTIRIDFEKEPLGVNAKGQQVFLKDIWPTRDEIQAVERQYVIPGMFKEVYQKIETVNESWNALATPSDKLFFWNSKSTYIKSPPFFENLTLDLQPPKSIVDAYVLLNLGDSVTTDHISPAGNIARNSPAARYLTNRGLTPREFNSYGSRRGNDAVMARGTFANIRLLNRFLNKQAPQTIHLPSGEILDVFDAAERYQQAGLPLIVLAGKEYGAGSSRDWAAKGPFLLGIKAVLAESYERIHRSNLVGMGVIPLEYLPGENADALGLTGQERYTIIIPENLKPQMKVQVKLDTGKTFQAVMRFDTDVELTYFLNGGILNYMIRKMAK
B4: ER-Golgi intermediate compartment (ERGIC) marker 53 (protein, UniProt P49257 31-510)
chain: DGVGGDPAVALPHRRFEYKYSFKGPHLVQSDGTVPFWAHAGNAIPSSDQIRVAPSLKSQRGSVWTKTKAAFENWEVEVTFRVTGRGRIGADGLAIWYAENQGLEGPVFGSADLWNGVGIFFDSFDNDGKKNNPAIVIIGNNGQIHYDHQNDGASQALASCQRDFRNKPYPVRAKITYYQNTLTVMINNGFTPDKNDYEFCAKVENMIIPAQGHFGISAATGGLADDHDVLSFLTFQLTEPGKEPPTPDKEISEKEKEKYQEEFEHFQQELDKKKEEFQKGHPDLQGQPAEEIFESVGDRELRQVFEGQNRIHLEIKQLNRQLDMILDEQRRYVSSLTEEISKRGAGMPGQHGQITQQELDTVVKTQHEILRQVNEMKNSMSETVRLVSGMQHPGSAGGVYETTQHFIDIKEHLHIVKRDIDNLVQRNMPSNEKPKCPELPPFPSCLSTVHFIIFVVVQTVLFIGYIMYRSQQEAAAKKFF
B5: filamin A-interacting protein 1 like (protein, UniProt Q4L180 1-1135)
chain: MRSRGSDTEGSAQKKFPRHTKGHSFQGPKNMKHRQQDKDSPSESDVILPCPKAEKPHSGNGHQAEDLSRDDLLFLLSILEGELQARDEVIGILKAEKMDLALLEAQYGFVTPKKVLEALQRDAFQAKSTPWQEDIYEKPMNELDKVVEKHKESYRRILGQLLVAEKSRRQTILELEEEKRKHKEYMEKSDEFICLLEQECERLKKLIDQEIKSQEEKEQEKEKRVTTLKEELTKLKSFALMVVDEQQRLTAQLTLQRQKIQELTTNAKETHTKLALAEARVQEEEQKATRLEKELQTQTTKFHQDQDTIMAKLTNEDSQNRQLQQKLAALSRQIDELEETNRSLRKAEEELQDIKEKISKGEYGNAGIMAEVEELRKRVLDMEGKDEELIKMEEQCRDLNKRLERETLQSKDFKLEVEKLSKRIMALEKLEDAFNKSKQECYSLKCNLEKERMTTKQLSQELESLKVRIKELEAIESRLEKTEFTLKEDLTKLKTLTVMFVDERKTMSEKLKKTEDKLQAASSQLQVEQNKVTTVTEKLIEETKRALKSKTDVEEKMYSVTKERDDLKNKLKAEEEKGNDLLSRVNMLKNRLQSLEAIEKDFLKNKLNQDSGKSTTALHQENNKIKELSQEVERLKLKLKDMKAIEDDLMKTEDEYETLERRYANERDKAQFLSKELEHVKMELAKYKLAEKTETSHEQWLFKRLQEEEAKSGHLSREVDALKEKIHEYMATEDLICHLQGDHSVLQKKLNQQENRNRDLGREIENLTKELERYRHFSKSLRPSLNGRRISDPQVFSKEVQTEAVDNEPPDYKSLIPLERAVINGQLYEESENQDEDPNDEGSVLSFKCSQSTPCPVNRKLWIPWMKSKEGHLQNGKMQTKPNANFVQPGDLVLSHTPGQPLHIKVTPDHVQNTATLEITSPTTESPHSYTSTAVIPNCGTPKQRITILQNASITPVKSKTSTEDLMNLEQGMSPITMATFARAQTPESCGSLTPERTMSPIQVLAVTGSASSPEQGRSPEPTEISAKHAIFRVSPDRQSSWQFQRSNSNSSSVITTEDNKIHIHLGSPYMQAVASPVRPASPSAPLQDNRTQGLINGALNKTTNKVTSSITITPTATPLPRQSQITVEPLLLPH
B6: pantothenate kinase 4 (protein, UniProt Q9NVE7 1-773)
chain: MAECGASGSGSSGDSLDKSITLPPDEIFRNLENAKRFAIDIGGSLTKLAYYSTVQHKVAKVRSFDHSGKDTEREHEPPYEISVQEEITARLHFIKFENTYIEACLDFIKDHLVNTETKVIQATGGGAYKFKDLIEEKLRLKVDKEDVMTCLIKGCNFVLKNIPHEAFVYQKDSDPEFRFQTNHPHIFPYLLVNIGSGVSIVKVETEDRFEWVGGSSIGGGTFWGLGALLTKTKKFDELLHLASRGQHSNVDMLVRDVYGGAHQTLGLSGNLIASSFGKSATADQEFSKEDMAKSLLHMISNDIGQLACLHARLHSLDRVYFGGFFIRGHPVTMRTITYSINFFSKGEVQALFLRHEGYLGAIGAFLKGAEQDNPNQYSWGENYAGSSGLMSASPELGPAQRARSGTFDLLEMDRLERPLVDLPLLLDPPSYVPDTVDLTDDALARKYWLTCFEEALDGVVKRAVASQPDSVDAAERAEKFRQKYWNKLQTLRQQPFAYGTLTVRSLLDTREHCLNEFNFPDPYSKVKQRENGVALRCFPGVVRSLDALGWEERQLALVKGLLAGNVFDWGAKAVSAVLESDPYFGFEEAKRKLQERPWLVDSYSEWLQRLKGPPHKCALIFADNSGIDIILGVFPFVRELLLRGTEVILACNSGPALNDVTHSESLIVAERIAGMDPVVHSALQEERLLLVQTGSSSPCLDLSRLDKGLAALVRERGADLVVIEGMGRAVHTNYHAALRCESLKLAVIKNAWLAERLGGRLFSVIFKYEVPAE

Tests used:
[1] = target: calcitonin receptor-like receptor (human (endogenous in HDLEC)) (UniProt Q16602); assay: affinity purification with mass spectrometry; IP of endogenous CLR from precleared HDLEC RIPA lysate (600 ug protein) with rabbit anti-human CLR immune serum LN-1436, protein G magnetic beads, 4 C, washes in 50 mM Tris pH 7.4, 150 mM NaCl without detergent; on-bead digestion, label-free quantitative nano LC-MS/MS; control IP with preimmune serum of the same rabbit; four independent experiments
[2] = target: calcitonin receptor-like receptor (human (endogenous in HDLEC)) (UniProt Q16602); assay: as above; remark: listed apart in the source

Molecule	binding [1]	binding [2]
BAG cochaperone 2 (from UniProt O95816 1-211)	binds	–
Protocadherin Fat 1 (from UniProt Q14517 22-4588)	binds	–
calcium/calmodulin-dependent protein kinase 2 delta (from UniProt Q13557 1-499) (enzyme)	binds	–
calcium/calmodulin-dependent protein kinase 2 gamma (from UniProt Q13555 1-558) (enzyme)	binds	–
cell division control protein 42 (CDC42) binding protein kinase alpha (from UniProt Q5VT25 1-1732) (enzyme)	binds	–
cell division control protein 42 (CDC42) binding protein kinase beta (from UniProt Q9Y5S2 1-1711) (enzyme)	binds	–
valosin-containing protein (from UniProt P55072 1-806)	binds	–
B1	–	binds
B2	–	binds
B3	–	binds
B4	–	binds
B5	–	binds
B6	–	binds

Where two headings read alike, the source gives them in different places. No constants are given. Whether binding was seen depends on the method and setting. In cells and extracts the contact can be indirect. Here binding means that the protein was enriched with, or labelled near, the bait; the list need not be complete.
